Laboratory results as given in publication PMC9684461, “RNA-controlled nucleocytoplasmic shuttling of mRNA decay factors regulates mRNA synthesis and a novel mRNA decay pathway” (Nature Communications, 2021).

The chains behind the UniProt entries cited, without tags or fusion partners.
UniProt P22147: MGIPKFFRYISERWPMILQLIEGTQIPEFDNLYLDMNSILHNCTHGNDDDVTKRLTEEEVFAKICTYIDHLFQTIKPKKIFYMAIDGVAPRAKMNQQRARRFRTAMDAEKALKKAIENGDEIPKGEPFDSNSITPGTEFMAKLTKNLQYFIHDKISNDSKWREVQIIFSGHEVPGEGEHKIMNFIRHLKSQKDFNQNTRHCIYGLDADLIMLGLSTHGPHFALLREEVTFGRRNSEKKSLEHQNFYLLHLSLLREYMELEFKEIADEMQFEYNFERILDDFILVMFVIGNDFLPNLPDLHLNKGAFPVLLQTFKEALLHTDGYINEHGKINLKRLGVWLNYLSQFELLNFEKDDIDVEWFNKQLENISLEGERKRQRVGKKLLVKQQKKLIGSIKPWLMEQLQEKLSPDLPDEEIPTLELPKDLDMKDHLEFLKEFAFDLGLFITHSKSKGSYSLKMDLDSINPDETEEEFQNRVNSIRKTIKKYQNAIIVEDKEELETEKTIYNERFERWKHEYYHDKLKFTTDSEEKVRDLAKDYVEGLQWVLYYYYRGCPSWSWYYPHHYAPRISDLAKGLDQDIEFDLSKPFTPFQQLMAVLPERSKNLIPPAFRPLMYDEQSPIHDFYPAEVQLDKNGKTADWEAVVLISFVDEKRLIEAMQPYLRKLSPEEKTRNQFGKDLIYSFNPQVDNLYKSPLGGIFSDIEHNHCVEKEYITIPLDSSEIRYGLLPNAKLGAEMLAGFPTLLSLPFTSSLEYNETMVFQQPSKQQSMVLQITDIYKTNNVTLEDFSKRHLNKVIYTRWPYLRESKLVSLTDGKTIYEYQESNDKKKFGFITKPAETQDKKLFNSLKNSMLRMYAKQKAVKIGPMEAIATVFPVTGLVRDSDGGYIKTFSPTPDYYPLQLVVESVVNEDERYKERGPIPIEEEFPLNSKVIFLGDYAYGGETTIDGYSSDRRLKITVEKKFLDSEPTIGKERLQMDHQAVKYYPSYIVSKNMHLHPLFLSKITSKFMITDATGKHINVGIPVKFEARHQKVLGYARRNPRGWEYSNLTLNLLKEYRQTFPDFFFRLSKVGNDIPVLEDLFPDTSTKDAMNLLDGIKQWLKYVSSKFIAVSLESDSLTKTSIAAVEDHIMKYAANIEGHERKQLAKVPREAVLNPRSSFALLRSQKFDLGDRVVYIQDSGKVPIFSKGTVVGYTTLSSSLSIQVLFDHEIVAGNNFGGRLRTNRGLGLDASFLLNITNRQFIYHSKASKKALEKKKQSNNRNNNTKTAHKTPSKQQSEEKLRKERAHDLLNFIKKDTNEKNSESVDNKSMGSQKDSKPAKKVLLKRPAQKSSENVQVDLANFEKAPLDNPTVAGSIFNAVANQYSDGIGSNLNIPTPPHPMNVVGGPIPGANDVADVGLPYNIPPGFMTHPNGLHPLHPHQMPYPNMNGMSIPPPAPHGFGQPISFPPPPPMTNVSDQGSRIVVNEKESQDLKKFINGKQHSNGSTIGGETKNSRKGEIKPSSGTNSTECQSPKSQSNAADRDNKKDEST

Target: T1, FLAG-tagged Xrn1 (wild type) (S. cerevisiae, UniProt P22147 1-1528)
T1 construct: 5' to 3' exonuclease Xrn1 (alias Kem1) of S. cerevisiae, called full-length Xrn1 for the FLAG-tagged purified protein; also called Xrn1-FLAG; Xrn1^WT; source: genomically FLAG-tagged strain, in lysate, for the IP with mass spectrometry
Experiment: affinity purification with mass spectrometry; lysate of strains with genomically FLAG-tagged WT or ΔNLS1/2 Xrn1 and a no-tag control; anti-FLAG Sepharose, elution with 3x FLAG peptide, in-gel digestion, mass spectrometry

B1: Kap120 (endogenous, in the lysate of the Xrn1-FLAG strain) (protein, UniProt Q02932 1-1032)
chain: MASSLNELNLVQVLEQASNPQHIRSDVQKLAEQQLRQWETQAGFHYLLQSIYLNLSNSLQIRWLAVIQFKNGVDKYWRSTRINAIPKDEKASIRGRLFEMIDEQNNQLCIQNAQASARIARLDFPVEWPTLFEDLENLLNDEIIRKDSVKIYNILMHINQIVKVLGTARIGRCRPAMQSKVPLILPLIVRIYLQSFEEWTTSSNLNYEDLSSLQVSYLALKVLRRIICEGYDRPQTDQSVCDFIKLSVSHFEMLISNHENFKKFDIYEKFIKCLGKLYFNLVTGSPANFILLPCSTQILITYTRLIFDKAPKVYRENSDVTGDFWEQTAIRGLLILKRVINFIHKKGAITLKARSDKLTIDASINKINTEFLNENLITRLVDTLMEWYLRLRPTELENWFMDPEEWINEQMATSYEYQIRPCAENVFQDLMNTFSELLVPYLLKKIENDASKLSNSLDDFLRKDAIYASFQLSASAVSEMVDFDRLLIQVFLPEATNTNISGDELRIIRRRVALIINEWSTVKCSEESKSLCYKLFTNFLTDEDDKVVLLTTVQTVRTMVDDWNFNKDTFQPFLTENVHLLLRKILPSVSLTETRLYVLNTLSDIIIQTKPLISRDLLVEILQIIPNLWEIATNNASEAILANALLRLLRNLVSSLGSQSHLTWDIAIPVVALACDPSSMQYQLLSEDGYELWGMLLQNFSSHDQEFDDKFVELVPFLKYGIETHTEILPTLLEIIKSYALILNPVDFFSNNTFQDIFKQMSKYLLKLREDSFQLVLEIWEILILSNESDYENLLLQKFYETGVLSALFDAIFLEEAPSSYLCSQIIQIIARISYVNPDALMTFLATYHDNLPTSNENARMPESIRKIVSKDQTYDSVVNKLLTGWIVCFRDIFDPKFKKVHILGISSLLRTGLVPILTEFSSIASLWIEMLEEINETNRGDCEKYHLNDIVTEQSIAFHPLTAEQLRYHQLCKNNDPVHNISLKDFISQSMEYLESHLGVERYQEFLKTINPSLLENLQMFLSIQPQEARP
B1 was tested, and the binding was “binds”.

No constants are given. Whether binding was seen depends on the method and setting. Binding seen in cells or lysates may run through a third protein. Here binding means that the protein was enriched with, or labelled near, the bait; the list need not be complete. Tags and fused reporters may be left off the sequences shown.
